From the supplement of paper PMC10849652
The other results are listed elsewhere or left out. Residues, ends and D or L forms follow the SMILES beside them. *: point of attachment. Cbz = O=C(OCc1ccccc1)*

Protein sequences, listed by entry. Tags and fused reporters are not part of them. Lines headed by an entry give the natural chain unless they say otherwise; changes in a name come on top.
UniProt P52333: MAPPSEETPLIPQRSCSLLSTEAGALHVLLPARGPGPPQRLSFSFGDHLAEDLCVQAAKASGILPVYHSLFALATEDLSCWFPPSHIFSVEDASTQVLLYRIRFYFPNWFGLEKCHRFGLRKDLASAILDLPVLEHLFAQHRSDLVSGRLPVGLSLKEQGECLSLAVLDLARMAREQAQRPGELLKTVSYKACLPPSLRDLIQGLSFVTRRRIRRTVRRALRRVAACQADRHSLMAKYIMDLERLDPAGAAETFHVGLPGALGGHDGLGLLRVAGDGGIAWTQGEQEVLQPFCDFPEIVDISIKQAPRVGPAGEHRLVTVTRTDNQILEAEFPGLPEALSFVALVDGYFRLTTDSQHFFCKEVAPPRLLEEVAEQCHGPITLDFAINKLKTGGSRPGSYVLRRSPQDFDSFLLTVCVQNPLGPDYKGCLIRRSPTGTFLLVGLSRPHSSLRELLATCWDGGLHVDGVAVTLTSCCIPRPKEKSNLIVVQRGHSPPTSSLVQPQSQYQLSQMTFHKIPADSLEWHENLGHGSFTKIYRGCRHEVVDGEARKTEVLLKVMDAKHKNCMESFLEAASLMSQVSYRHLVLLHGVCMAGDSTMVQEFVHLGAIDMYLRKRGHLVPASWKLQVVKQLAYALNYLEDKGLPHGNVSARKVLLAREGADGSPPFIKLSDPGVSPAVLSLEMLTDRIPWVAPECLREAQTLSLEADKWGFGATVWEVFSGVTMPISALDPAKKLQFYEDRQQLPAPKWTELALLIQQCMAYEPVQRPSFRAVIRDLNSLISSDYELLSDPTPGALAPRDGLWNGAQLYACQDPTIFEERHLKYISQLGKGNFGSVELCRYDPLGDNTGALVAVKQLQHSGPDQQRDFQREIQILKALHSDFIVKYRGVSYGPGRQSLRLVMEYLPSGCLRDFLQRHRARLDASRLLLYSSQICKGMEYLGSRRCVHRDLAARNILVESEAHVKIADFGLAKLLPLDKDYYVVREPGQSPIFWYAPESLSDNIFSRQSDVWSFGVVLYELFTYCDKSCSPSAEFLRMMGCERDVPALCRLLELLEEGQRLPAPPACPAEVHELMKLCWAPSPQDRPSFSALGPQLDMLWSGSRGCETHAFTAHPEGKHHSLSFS
UniProt Q9BW62: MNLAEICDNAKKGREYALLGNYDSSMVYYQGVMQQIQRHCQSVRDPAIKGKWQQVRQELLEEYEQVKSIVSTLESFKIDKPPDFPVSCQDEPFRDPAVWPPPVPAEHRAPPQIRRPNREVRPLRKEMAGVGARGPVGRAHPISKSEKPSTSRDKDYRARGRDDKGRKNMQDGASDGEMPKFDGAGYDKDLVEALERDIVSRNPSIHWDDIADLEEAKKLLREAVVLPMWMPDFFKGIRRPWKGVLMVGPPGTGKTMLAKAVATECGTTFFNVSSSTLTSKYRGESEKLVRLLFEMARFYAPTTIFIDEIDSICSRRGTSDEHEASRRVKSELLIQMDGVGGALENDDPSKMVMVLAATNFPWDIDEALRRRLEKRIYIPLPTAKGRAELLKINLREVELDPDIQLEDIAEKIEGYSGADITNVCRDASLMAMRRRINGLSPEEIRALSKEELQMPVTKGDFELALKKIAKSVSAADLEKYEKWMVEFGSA
UniProt O60268: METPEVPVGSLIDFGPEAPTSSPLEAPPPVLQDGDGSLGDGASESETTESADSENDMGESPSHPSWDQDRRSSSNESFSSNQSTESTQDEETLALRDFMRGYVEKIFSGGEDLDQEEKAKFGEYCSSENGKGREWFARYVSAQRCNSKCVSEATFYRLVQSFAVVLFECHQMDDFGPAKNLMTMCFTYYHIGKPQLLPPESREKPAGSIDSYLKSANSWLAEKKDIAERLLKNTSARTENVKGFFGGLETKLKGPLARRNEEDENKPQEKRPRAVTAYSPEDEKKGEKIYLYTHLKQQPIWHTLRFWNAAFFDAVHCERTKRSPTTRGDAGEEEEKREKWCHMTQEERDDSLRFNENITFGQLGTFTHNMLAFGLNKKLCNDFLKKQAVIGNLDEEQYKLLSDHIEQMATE
UniProt Q9NS87: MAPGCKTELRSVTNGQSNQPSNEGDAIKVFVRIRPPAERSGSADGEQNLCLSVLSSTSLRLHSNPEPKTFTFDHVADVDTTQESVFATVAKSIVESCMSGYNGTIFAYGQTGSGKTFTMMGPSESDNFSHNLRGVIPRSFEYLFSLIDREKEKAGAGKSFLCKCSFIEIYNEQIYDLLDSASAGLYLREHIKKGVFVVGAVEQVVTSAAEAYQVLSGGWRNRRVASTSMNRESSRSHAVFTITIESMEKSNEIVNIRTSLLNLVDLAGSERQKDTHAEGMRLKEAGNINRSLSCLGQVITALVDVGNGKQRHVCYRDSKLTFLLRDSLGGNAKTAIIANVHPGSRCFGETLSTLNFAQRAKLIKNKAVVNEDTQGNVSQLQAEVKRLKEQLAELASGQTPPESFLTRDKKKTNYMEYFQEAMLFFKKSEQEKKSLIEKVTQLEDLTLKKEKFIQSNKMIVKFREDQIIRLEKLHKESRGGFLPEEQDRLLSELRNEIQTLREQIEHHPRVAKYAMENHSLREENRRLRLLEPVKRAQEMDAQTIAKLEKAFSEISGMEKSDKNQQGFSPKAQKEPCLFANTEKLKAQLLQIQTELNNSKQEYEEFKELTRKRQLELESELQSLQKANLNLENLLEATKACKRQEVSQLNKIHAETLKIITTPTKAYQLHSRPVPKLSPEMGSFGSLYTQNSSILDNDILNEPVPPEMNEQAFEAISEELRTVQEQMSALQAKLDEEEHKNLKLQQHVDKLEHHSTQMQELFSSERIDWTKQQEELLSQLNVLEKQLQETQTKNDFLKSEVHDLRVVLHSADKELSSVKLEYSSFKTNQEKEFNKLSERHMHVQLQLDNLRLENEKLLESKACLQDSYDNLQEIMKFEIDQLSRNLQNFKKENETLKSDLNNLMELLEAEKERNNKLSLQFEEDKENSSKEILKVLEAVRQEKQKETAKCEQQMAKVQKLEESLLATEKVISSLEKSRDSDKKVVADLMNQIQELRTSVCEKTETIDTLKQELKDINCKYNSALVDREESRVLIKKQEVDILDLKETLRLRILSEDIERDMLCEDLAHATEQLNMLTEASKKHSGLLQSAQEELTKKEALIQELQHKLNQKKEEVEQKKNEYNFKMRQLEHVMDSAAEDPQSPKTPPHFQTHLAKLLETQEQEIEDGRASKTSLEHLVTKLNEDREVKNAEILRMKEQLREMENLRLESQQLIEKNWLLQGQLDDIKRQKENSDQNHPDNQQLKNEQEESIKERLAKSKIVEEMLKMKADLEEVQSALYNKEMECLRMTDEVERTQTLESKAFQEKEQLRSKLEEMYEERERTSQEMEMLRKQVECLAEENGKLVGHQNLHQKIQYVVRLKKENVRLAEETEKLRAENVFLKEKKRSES
UniProt Q8NFY9: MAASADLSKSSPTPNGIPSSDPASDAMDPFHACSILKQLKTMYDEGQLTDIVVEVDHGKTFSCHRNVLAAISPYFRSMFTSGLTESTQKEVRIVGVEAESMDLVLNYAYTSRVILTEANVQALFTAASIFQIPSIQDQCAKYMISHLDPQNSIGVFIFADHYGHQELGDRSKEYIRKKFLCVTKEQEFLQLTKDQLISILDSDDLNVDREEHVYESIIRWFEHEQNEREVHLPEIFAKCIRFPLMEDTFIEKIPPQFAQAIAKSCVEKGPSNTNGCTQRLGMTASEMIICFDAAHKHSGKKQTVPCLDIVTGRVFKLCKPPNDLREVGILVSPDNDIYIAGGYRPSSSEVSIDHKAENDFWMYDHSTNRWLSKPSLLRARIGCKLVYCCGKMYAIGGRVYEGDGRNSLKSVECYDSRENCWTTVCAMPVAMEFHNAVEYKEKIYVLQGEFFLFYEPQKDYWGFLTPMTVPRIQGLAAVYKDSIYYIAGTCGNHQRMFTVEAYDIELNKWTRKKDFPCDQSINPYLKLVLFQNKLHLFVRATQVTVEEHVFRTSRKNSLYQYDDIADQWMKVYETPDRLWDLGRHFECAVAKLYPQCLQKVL
UniProt Q8TBB5: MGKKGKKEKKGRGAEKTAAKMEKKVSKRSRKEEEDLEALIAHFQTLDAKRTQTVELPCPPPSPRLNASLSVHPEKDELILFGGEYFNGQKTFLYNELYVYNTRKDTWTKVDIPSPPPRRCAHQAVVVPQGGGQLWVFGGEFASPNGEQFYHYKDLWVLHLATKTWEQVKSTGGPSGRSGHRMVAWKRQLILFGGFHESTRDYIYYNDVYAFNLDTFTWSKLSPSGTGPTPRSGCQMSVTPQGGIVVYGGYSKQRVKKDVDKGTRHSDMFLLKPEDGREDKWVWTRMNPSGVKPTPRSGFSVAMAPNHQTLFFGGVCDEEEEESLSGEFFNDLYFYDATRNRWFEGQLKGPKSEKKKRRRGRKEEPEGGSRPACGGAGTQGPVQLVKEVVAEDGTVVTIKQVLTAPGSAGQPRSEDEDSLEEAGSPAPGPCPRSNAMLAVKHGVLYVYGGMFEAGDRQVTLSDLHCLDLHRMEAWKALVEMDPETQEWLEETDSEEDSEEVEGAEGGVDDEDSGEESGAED
UniProt O43731: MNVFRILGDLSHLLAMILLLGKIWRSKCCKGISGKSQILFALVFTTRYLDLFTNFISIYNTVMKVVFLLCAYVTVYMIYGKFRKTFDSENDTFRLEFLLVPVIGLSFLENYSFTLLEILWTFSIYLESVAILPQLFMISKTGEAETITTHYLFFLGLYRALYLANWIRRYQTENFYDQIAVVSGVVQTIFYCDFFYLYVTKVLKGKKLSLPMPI
UniProt Q9H3F6: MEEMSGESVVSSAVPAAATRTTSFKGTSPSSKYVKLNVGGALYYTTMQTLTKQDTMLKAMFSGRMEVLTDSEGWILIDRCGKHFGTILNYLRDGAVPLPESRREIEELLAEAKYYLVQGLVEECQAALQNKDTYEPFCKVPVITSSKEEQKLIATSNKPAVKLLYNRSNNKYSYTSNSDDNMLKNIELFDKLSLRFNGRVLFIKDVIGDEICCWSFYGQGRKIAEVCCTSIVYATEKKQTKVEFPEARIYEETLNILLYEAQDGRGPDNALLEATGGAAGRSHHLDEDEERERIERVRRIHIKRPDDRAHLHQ
UniProt Q8IXQ5, whole entry, looked up: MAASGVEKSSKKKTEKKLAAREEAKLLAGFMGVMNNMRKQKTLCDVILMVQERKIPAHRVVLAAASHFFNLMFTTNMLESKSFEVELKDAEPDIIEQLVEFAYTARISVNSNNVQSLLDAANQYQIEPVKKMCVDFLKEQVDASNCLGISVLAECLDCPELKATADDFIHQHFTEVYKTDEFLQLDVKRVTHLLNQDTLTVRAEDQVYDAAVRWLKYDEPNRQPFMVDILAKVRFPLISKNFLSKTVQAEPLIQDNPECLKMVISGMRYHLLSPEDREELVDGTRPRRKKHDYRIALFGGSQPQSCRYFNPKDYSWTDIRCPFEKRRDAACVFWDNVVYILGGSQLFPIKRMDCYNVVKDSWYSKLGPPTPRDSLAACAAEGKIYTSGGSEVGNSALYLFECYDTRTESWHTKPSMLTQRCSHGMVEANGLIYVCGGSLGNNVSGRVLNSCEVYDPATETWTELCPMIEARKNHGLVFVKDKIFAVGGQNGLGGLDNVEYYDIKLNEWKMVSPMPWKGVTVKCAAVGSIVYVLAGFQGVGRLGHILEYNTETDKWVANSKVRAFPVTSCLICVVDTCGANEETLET
UniProt O00180: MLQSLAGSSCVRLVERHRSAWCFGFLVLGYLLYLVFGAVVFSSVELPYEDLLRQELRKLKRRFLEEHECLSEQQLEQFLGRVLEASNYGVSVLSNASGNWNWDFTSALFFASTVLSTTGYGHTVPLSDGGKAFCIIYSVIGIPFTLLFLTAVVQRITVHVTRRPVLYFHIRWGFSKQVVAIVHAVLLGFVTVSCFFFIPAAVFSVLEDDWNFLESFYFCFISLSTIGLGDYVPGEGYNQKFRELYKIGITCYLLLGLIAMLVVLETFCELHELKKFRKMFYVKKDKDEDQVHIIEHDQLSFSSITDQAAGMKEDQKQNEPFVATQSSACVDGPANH
UniProt O76095: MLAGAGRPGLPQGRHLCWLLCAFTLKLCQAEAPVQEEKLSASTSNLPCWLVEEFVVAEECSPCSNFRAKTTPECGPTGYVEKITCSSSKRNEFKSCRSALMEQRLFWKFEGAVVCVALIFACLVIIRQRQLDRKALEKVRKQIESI
UniProt Q07666, whole entry, looked up: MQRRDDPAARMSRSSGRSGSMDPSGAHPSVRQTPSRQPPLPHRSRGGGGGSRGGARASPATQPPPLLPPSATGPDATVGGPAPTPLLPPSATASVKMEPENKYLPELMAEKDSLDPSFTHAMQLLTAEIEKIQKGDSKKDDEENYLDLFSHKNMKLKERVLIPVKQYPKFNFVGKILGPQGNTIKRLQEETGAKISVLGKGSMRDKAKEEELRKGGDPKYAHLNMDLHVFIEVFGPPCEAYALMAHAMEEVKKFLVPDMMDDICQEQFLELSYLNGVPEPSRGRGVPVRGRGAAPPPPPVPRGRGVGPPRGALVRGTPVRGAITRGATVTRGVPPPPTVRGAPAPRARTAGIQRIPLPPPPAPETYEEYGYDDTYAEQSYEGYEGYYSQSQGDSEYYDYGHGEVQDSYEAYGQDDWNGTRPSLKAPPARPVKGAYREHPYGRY

Key:
Assay in all cases: log2 fold change, soluble protein after heating vs DMSO (PISA); higher = thermal stabilisation; K562 cells, 10 uM, 30 min; active = over 0.2 and 3.5 SD of the protein, either way, in both replicates (recomputed)
[1] = compound: C1COCCN1CCN2C3=CC=CC=C3N=C2NC(=O)C4=CC(=CC=C4)[N+](=O)[O-] [IRAK-1-4 Inhibitor I]
Method in brief: (§1)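 Soluble protein was quantified by TMTpro 16plex LC-MS/MS after channel sums were equalised. It was obtained as the supernatant after 21,000xg for 90 min from pooled aliquots of K562 cells (2×10^6 cells/mL, 10 μM compound, 30 min) heated for 3 min across 48°C-58°C and extracted in PBS with 0.5% NP-40 at 4°C. Thermal stability values are relative to control samples and come from duplicates. They are given as log2 fold changes.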

[2] = compound: C=CC(=O)N1CCC[C@@H](n2nc(-c3ccc(Oc4ccccc4)cc3)c3c(N)ncnc32)C1 [ibrutinib]
Method in brief: as §1

[3] = compound: CC(=O)c1cnc2ccc(-c3cc(Cl)c(O)c(Cl)c3)nc2c1N[C@H]1CC[C@H](CN(C)C)CC1
Method in brief: as §1

[4] = compound: CC(C)(C)Cn1c(N)nc2ccc(-c3[nH]c(C(C)(C)C)nc3-c3ccc(F)cc3)nc21 [ralimetinib]
Method in brief: as §1

[5] = compound: CC(C)C1=C2N=C(C=C(N2N=C1)NCC3=CC=CC=C3)NCCCCCCN
Method in brief: as §1

[6] = compound: CC(C)C[C@@H](C=O)NC(=O)[C@H](CC(C)C)NC(=O)[C@H](CC(C)C)NC(=O)OCc1ccccc1
Method in brief: as §1

[7] = compound: CC(C)N(C[C@H]1O[C@@H](n2cnc3c(N)ncnc32)[C@H](O)[C@@H]1O)[C@H]1C[C@@H](CCc2nc3cc(C(C)(C)C)ccc3[nH]2)C1 [pinometostat]
Method in brief: as §1

[8] = compound: CC1=C(C2=C(C=C1)C(=O)C3=CC=CC=C3N2CCCN)C
Method in brief: as §1

[9] = compound: CC1=C(C=C(C=C1)NC(=O)C2=CC(=CC=C2)C(C)(C)C#N)NC3=CC4=C(C=C3)N=CN(C4=O)C
Method in brief: as §1

[10] = compound: CC1=C(C=C(C=C1)NC(=O)C2=CC(=CC=C2)N(C)C)NC(=O)C3=CC=C(C=C3)O
Method in brief: as §1

[11] = compound: CC1=NC(=CC=C1)C2=C(N=C(N2)C(C)(C)C)C3=CC4=NC=CN=C4C=C3
Method in brief: as §1

[12] = compound: CCCS(=O)(=O)Nc1ccc(F)c(C(=O)c2c[nH]c3ncc(-c4ccc(Cl)cc4)cc23)c1F [vemurafenib]
Method in brief: as §1

[13] = compound: CCCc1cc(C)[nH]c(=O)c1CNC(=O)c1cc(-c2ccnc(N3CCN(C)CC3)c2)cc2c1cnn2C(C)C
Method in brief: as §1

[14] = compound: CCN(CC)Cc1ccc2cc(COC(=O)Nc3ccc(C(=O)NO)cc3)ccc2c1 [givinostat]
Method in brief: as §1

[15] = compound: CCN(CCCOc1ccc2c(Nc3cc(CC(=O)Nc4cccc(F)c4)[nH]n3)ncnc2c1)CCOP(=O)(O)O [barasertib]
Method in brief: as §1

[16] = compound: CC(C)(O)CC(=O)NCCn1ccc2ncnc(Nc3ccc(Oc4cccc(C(F)(F)F)c4)c(Cl)c3)c21
Method in brief: as §1

[17] = compound: CC1=CC=C(C=C1)SC2=C3C=C(SC3=CN=C2)C(=O)N
Method in brief: as §1

[18] = compound: CCCCN(Cc1ccc(C(=O)NO)cc1)C(=O)Nc1ccccc1 [Nexturastat A]
Method in brief: as §1

[19] = compound: CCCS(=O)(=O)Nc1ccc(F)c(C(=O)c2c[nH]c3ncc(Cl)cc23)c1F
Method in brief: as §1

[20] = compound: CC1=C(C(CC(=O)N1)C2=CC=C(C=C2)C(F)(F)F)C(=O)NC3=C(C=C4C(=C3)C=NN4)F
Method in brief: as §1

Measured: log2 fold change

KLHDC8B (UniProt Q8IXV7)
inactive: [1] -0.016 | [2] -0.361 | [3] -0.001 | [4] -0.032 | [5] 0.088 | [6] -0.088 | [7] 0.091 | [8] -0.056 | [9] -0.007 | [10] 0.068 | [11] -0.063 | [12] -0.012 | [13] 0.114 | [14] -0.08 | [15] 0.111

JAK3 (UniProt P52333)
inactive: [1] -0.01 | [2] -0.052 | [4] -0.184 | [16] -0.045 | [5] 0.072 | [6] -0.043 | [7] -0.082 | [8] -0.089 | [9] -0.002 | [10] -0.056 | [17] 0.066 | [11] 0.099 | [12] -0.032 | [19] -0.029 | [13] 0.016 | [14] -0.16 | [15] 0.016
active: [18] -0.478

KATNAL1 (UniProt Q9BW62)
inactive: [1] 0.08 | [2] 0.007 | [3] -0.109 | [16] -0.228 | [7] -0.274 | [8] 0.136 | [9] -0.262 | [17] 0.109 | [11] -0.199 | [18] 0.107 | [12] -0.005 | [19] 0.034 | [15] 0.208

KIAA0513 (UniProt O60268)
inactive: [1] -0.015 | [2] 0.043 | [3] 0.015 | [5] -0.051 | [7] 0.113 | [20] 0.016 | [8] -0.066 | [9] 0.026 | [17] 0.033 | [11] 0.007 | [12] 0.189 | [19] -0.068 | [13] -0.071 | [14] 0.04 | [15] 0.063

KIF15 (UniProt Q9NS87)
inactive: [1] -0.072 | [2] 0.001 | [3] 0.211 | [4] 0.21 | [16] -0.001 | [5] -0.098 | [6] 0.146 | [7] 0.165 | [8] 0.02 | [9] -0.055 | [10] 0.021 | [11] 0.003 | [18] 0.25 | [12] -0.072 | [13] 0.072 | [14] 0.08 | [15] 0.04

KPNB1 (UniProt Q14974)
active: [5] -0.355
inactive: [1] -0.079 | [2] -0.041 | [3] 0.033 | [4] 0.042 | [16] -0.036 | [6] 0.035 | [7] 0.113 | [8] -0.038 | [9] 0.049 | [10] -0.041 | [17] 0 | [11] -0.015 | [18] 0.119 | [12] 0.07 | [19] 0.076 | [13] 0.052 | [14] 0.085 | [15] 0.02

KBTBD8 (UniProt Q8NFY9)
inactive: [1] -0.319 | [2] -0.054 | [3] -0.043 | [4] 0.09 | [16] -0.086 | [6] -0.058 | [7] 0.049 | [20] 0.121 | [8] 0.268 | [9] 0.001 | [10] -0.052 | [17] -0.226 | [11] 0.133 | [18] 0.067 | [12] 0.004 | [19] 0.028 | [13] 0.057 | [15] 0.107

KLHDC4 (UniProt Q8TBB5)
inactive: [1] -0.008 | [2] -0.011 | [3] -0.008 | [4] 0.062 | [16] 0.002 | [5] 0.065 | [6] 0.017 | [7] 0.199 | [8] 0.159 | [9] -0.027 | [10] -0.003 | [17] -0.007 | [11] -0.092 | [18] 0.18 | [12] 0.096 | [19] 0.076 | [13] -0.223 | [14] -0.011 | [15] 0.028

KIF21A isoform 4 (UniProt Q7Z4S6)
inactive: [1] -0.025 | [2] -0.053 | [3] -0.054 | [4] 0.035 | [16] -0.062 | [5] -0.009 | [6] 0.084 | [7] 0.144 | [8] 0.096 | [9] 0.051 | [10] -0.067 | [17] -0.003 | [11] -0.043 | [18] 0.106 | [12] -0.045 | [19] 0.014 | [13] -0.025 | [14] 0.069 | [15] 0.104

KDELR3 (UniProt O43731)
inactive: [1] 0.083 | [2] -0.136 | [3] 0.09 | [5] -0.128 | [7] -0.126 | [20] -0.013 | [8] 0.152 | [11] 0.135 | [13] -0.114 | [14] 0.044 | [15] 0.082

KCTD10 (UniProt Q9H3F6)
active: [5] 0.277
inactive: [1] 0.01 | [2] 0.024 | [3] -0.037 | [4] -0.049 | [16] 0.043 | [6] -0.02 | [7] -0.021 | [8] -0.034 | [9] -0.055 | [10] 0.022 | [17] -0.025 | [11] 0.017 | [18] 0.051 | [12] -0.013 | [19] -0.029 | [13] 0.024 | [14] 0.025 | [15] 0.021

KDELR1 (UniProt P24390)
inactive: [1] 0.061 | [2] 0.115 | [4] -0.08 | [16] 0.081 | [5] 0.141 | [6] -0.028 | [7] -0.003 | [20] 0.039 | [8] -0.132 | [9] -0.271 | [10] -0.057 | [17] -0.037 | [11] -0.125 | [18] -0.145 | [19] -0.102 | [13] 0.048 | [14] 0.085 | [15] 0.118

JPT2 isoform 2 (UniProt Q9H910)
inactive: [1] -0.025 | [2] 0.11 | [3] 0.086 | [5] 0.055 | [7] -0.029 | [20] -0.137 | [8] 0.043 | [9] -0.018 | [17] 0.049 | [11] -0.009 | [12] -0.001 | [19] -0.142 | [13] -0.002 | [14] 0.027 | [15] 0.008

JMJD4 (UniProt Q9H9V9)
inactive: [1] 0.166 | [2] -0.077 | [3] -0.139 | [7] -0.152 | [20] -0.171 | [9] 0.154 | [17] 0.144 | [11] 0.125 | [19] 0.059 | [15] 0.085

KLHL7 isoform 3 (UniProt Q8IXQ5)
inactive: [1] 0.296 | [2] 0.015 | [3] -0.312 | [16] -0.146 | [7] 0.079 | [20] 0.014 | [9] -0.062 | [17] -0.056 | [11] 0.311 | [18] -0.153 | [19] -0.179 | [13] 0.145 | [15] 0.122

KIAA1324L (UniProt A8MWY0)
inactive: [1] 0.027 | [2] -0.056 | [3] -0.052 | [4] -0.024 | [16] -0.038 | [5] 0.024 | [6] 0 | [7] -0.008 | [8] -0.037 | [9] -0.065 | [10] -0.022 | [17] 0.028 | [11] 0.002 | [18] 0.045 | [12] 0.002 | [19] -0.048 | [13] 0.05 | [14] 0.032 | [15] 0.002

3 neighbouring records already listed:
KDELR1 (UniProt P24390)
inactive: [1] 0.061 | [2] 0.115 | [4] -0.08 | [16] 0.081 | [5] 0.141 | [6] -0.028 | [7] -0.003 | [20] 0.039 | [8] -0.132 | [9] -0.271 | [10] -0.057 | [17] -0.037 | [11] -0.125 | [18] -0.145 | [19] -0.102 | [13] 0.048 | [14] 0.085 | [15] 0.118

JPT2 isoform 2 (UniProt Q9H910)
inactive: [1] -0.025 | [2] 0.11 | [3] 0.086 | [5] 0.055 | [7] -0.029 | [20] -0.137 | [8] 0.043 | [9] -0.018 | [17] 0.049 | [11] -0.009 | [12] -0.001 | [19] -0.142 | [13] -0.002 | [14] 0.027 | [15] 0.008

JMJD4 (UniProt Q9H9V9)
inactive: [1] 0.166 | [2] -0.077 | [3] -0.139 | [7] -0.152 | [20] -0.171 | [9] 0.154 | [17] 0.144 | [11] 0.125 | [19] 0.059 | [15] 0.085

(cont.)

KCNK1 (UniProt O00180)
inactive: [1] 0.043 | [2] 0.146 | [4] 0.197 | [16] -0.025 | [5] -0.069 | [6] 0.123 | [7] -0.03 | [20] 0.179 | [9] 0.02 | [10] 0.014 | [17] 0.099 | [11] 0.087 | [18] 0.01 | [19] -0.097 | [14] -0.11 | [15] -0.003

JTB (UniProt O76095)
inactive: [1] -0.311 | [2] -0.046 | [3] 0 | [16] -0.047 | [5] 0.067 | [7] 0.031 | [20] -0.061 | [8] 0.015 | [9] -0.063 | [17] -0.068 | [11] 0.045 | [18] 0.034 | [12] -0.016 | [19] -0.063 | [13] -0.048 | [14] 0.026 | [15] 0.011

KHDRBS1 (UniProt Q07666)
inactive: [1] -0.069 | [2] 0.038 | [3] -0.002 | [4] 0.016 | [16] 0.073 | [5] -0.039 | [6] 0.017 | [7] -0.052 | [9] 0.086 | [10] -0.006 | [17] -0.082 | [11] 0.111 | [18] 0.077 | [12] 0.075 | [19] -0.068 | [13] 0.034 | [14] 0.005 | [15] -0.106
active: [8] 0.621
